The supplement of paper PMC12823440, “Inhibitors supercharge kinase turnover through native proteolytic circuits” (Nature, 2025)
Where a name gives a salt, the structure may show the parent alone. This is one part of the list. Hit calls seldom repeat between salt and free forms of one compound.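 In K562 cells expressing nanoluciferase-fused kinases, luminescence was recorded at 4 h intervals between 2 and 18 h, normalized as percent of control with DMSO at 100% and a positive control at 0%. A significant (2 sigma) signal drop marks a time point as decreased. The authors' rule for a hit is not shown and takes in more than the number of time points.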

The chains behind the UniProt entries cited, without tags or fusion partners.
UniProt P50750, whole entry: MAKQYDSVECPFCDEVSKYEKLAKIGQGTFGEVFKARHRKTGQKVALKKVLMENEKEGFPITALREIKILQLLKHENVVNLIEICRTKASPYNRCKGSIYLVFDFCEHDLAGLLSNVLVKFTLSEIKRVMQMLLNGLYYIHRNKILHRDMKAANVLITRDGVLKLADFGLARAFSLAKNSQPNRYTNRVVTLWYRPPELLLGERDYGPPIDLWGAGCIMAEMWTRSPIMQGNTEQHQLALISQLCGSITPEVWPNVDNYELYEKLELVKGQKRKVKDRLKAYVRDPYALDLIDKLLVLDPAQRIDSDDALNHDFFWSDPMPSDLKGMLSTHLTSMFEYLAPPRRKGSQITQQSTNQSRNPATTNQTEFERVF

What follows are molecules tested against CDK9 (UniProt P50750) (assay: number of time points (of 4; 2 h point missing) at which kinase-Nluc abundance scored as decreased, DMSO-normalised (count); higher = more persistent destabilization). Details: 2.5 µM; K562; 2-18 h.

| SMILES | number of time points |
| --- | --- |
| C=CC(=O)Nc1cc(Nc2nccc(-c3cn(C4CC4)c4ccccc34)n2)c(OC)cc1N(C)CCN(C)C [Almonertinib (hydrochloride)] | 0 |
| C[C@H](Nc1cc(-c2cnn(C)c2)cc(Nc2cnccn2)n1)c1ccc(F)cc1 [Ilginatinib] | 1 |
| Cc1cccc(-c2[nH]c(CNc3ccccc3F)nc2-c2ccc3ncnn3c2)n1 [Vactosertib] | 0 |
| Cc1cc(Nc2ncc(Cl)c(Nc3ccccc3S(=O)(=O)C(C)C)n2)c(OC(C)C)cc1C1CCNCC1 [Ceritinib] | 0 |
| CC(C)Oc1ccc(-c2nn([C@@H](C)c3oc4ccc(F)cc4c(=O)c3-c3cccc(F)c3)c3ncnc(N)c23)cc1F [Umbralisib (hydrochloride)] | 0 |
| C=CC(=O)Nc1cc2c(Nc3ccc(F)c(Cl)c3)ncnc2cc1C#CC(C)(C)N1CCN(C)CC1 | 0 |
| CCCCCCCCc1ccc(CCC(N)(CO)CO)cc1 [Fingolimod] | 0 |
| Cc1cccc(/C=N/Nc2cc(N3CCOCC3)nc(OCCc3ccccn3)n2)c1 [Apilimod] | 0 |
| CC(C)Oc1ccc(-c2nn([C@@H](C)c3oc4ccc(F)cc4c(=O)c3-c3cccc(F)c3)c3ncnc(N)c23)cc1F [Umbralisib] | 0 |
| c1cc(-c2cnn3cc(-c4ccc(OCCN5CCCCC5)cc4)cnc23)ccn1 [Dorsomorphin] | 0 |

Same assay, conditions: 10 µM; K562; 2-18 h

| SMILES | number of time points |
| --- | --- |
| Cn1cc(-c2cnc3ccc4ccc(CS(=O)(=O)NCc5ccccn5)cc4c(=O)c3c2)cn1 | 0 |
| C[C@H](CCC(=O)NCCS(=O)(=O)O)[C@H]1CC[C@H]2[C@@H]3[C@@H](O)C[C@@H]4C[C@H](O)CC[C@]4(C)[C@H]3CC[C@]12C [Tauroursodeoxycholate (dihydrate)] | 0 |
| COC(=O)[C@H](CC(C)C)NC(=O)c1ccc(NC[C@@H](N)CS)cc1-c1cccc2ccccc12 | 0 |
| N#CCNC(=O)c1ccc(-c2ccnc(Nc3ccc(N4CCOCC4)cc3)n2)cc1 [Momelotinib] | 0 |
| CNC(=O)c1ccc(Nc2ncc(C(F)(F)F)c(NCc3nccnc3N(C)S(C)(=O)=O)n2)cc1 [Defactinib] | 0 |
| C=CC(=O)Nc1cc(Nc2ncc(C(=O)OC(C)C)c(-c3cn(C)c4ccccc34)n2)c(OC)cc1N(C)CCN(C)C [Mobocertinib] | 0 |
| O=C(Nc1ccncc1)Nc1ccc(-c2nc(N3CCOCC3)nc(N3C4CCC3COC4)n2)cc1 | 0 |
| N#CCC1(n2cc(-c3ncnc4[nH]ccc34)cn2)CN(C2CCN(C(=O)c3ccnc(C(F)(F)F)c3F)CC2)C1 [Itacitinib adipate] | 0 |
| CN(C)C(=O)c1cc2cnc(Nc3ccc(N4CCNCC4)cn3)nc2n1C1CCCC1 [Ribociclib succinate] | 0 |
| CC(=O)Nc1cccc(-n2c(=O)n(C3CC3)c(=O)c3c(Nc4ccc(I)cc4F)n(C)c(=O)c(C)c32)c1 [Trametinib (DMSO solvate)] | 1 |
| CCS(=O)(=O)N1CC(CC#N)(n2cc(-c3ncnc4[nH]ccc34)cn2)C1 [Baricitinib (phosphate)] | 0 |
| FC(F)(F)c1ccc(CNc2ccc(Cc3c[nH]c4ncc(Cl)cc34)cn2)cn1 [Pexidartinib (hydrochloride)] | 0 |
| C#Cc1cccc(Nc2ncnc3cc4c(cc23)OCCOCCOCCO4)c1 [Icotinib (Hydrochloride)] | 0 |
| N=C(N)NC(=O)c1nc(Cl)c(N)nc1N [Amiloride hydrochloride dihydrate] | 0 |
| C[S+]([O-])c1ccc(-c2nc(-c3ccc(F)cc3)c(-c3ccncc3)[nH]2)cc1 (stereo not given) | 0 |
| Oc1cccc(-c2nc(N3CCOCC3)c3oc4ncccc4c3n2)c1 | 1 |
| N#CCNC(=O)c1ccc(-c2ccnc(Nc3ccc(N4CCOCC4)cc3)n2)cc1 [Momelotinib sulfate] | 0 |
| COc1ccnc(C[S+]([O-])c2nc3cc(-n4cccc4)ccc3[nH]2)c1C (stereo not given) [Ilaprazole] | 0 |
| O=C(O)c1ccc2c(c1)nc(Nc1cccc(Cl)c1)c1ccncc12 [Silmitasertib] | 4 |
| CS(=O)(=O)N1CCN(Cc2cc3nc(-c4cccc5[nH]ncc45)nc(N4CCOCC4)c3s2)CC1 [Pictilisib] | 0 |
| CN(C)C(=N)NC(=N)N [Metformin (hydrochloride)] | 0 |
| Cc1nc2ccc(-n3c(-c4nonc4N)nc4cnccc43)cc2[nH]1 | 0 |
| Cn1ncc(Cl)c1-c1cc(C(=O)N[C@H](CN)Cc2cccc(F)c2)sc1Cl [Afuresertib] | 0 |
| N=C(N)NC(=O)c1nc(Cl)c(N)nc1N [Amiloride (hydrochloride)] | 0 |
| N#CCC1(n2cc(-c3ncnc4[nH]ccc34)cn2)CN(C2CCN(C(=O)c3ccnc(C(F)(F)F)c3F)CC2)C1 [Itacitinib] | 0 |

Exported with bars between the fields: entries from further up
SMILES | number of time points
C[C@H](CCC(=O)NCCS(=O)(=O)O)[C@H]1CC[C@H]2[C@@H]3[C@@H](O)C[C@@H]4C[C@H](O)CC[C@]4(C)[C@H]3CC[C@]12C [Tauroursodeoxycholate (dihydrate)] | 0
COC(=O)[C@H](CC(C)C)NC(=O)c1ccc(NC[C@@H](N)CS)cc1-c1cccc2ccccc12 | 0
